Results from paper doi:10.1101/2020.03.02.973859.

T1: K+/Cl- co-transporter KCC2 (mouse (endogenous in mouse forebrain)) (UniProt Q91V14)
T1 sequence: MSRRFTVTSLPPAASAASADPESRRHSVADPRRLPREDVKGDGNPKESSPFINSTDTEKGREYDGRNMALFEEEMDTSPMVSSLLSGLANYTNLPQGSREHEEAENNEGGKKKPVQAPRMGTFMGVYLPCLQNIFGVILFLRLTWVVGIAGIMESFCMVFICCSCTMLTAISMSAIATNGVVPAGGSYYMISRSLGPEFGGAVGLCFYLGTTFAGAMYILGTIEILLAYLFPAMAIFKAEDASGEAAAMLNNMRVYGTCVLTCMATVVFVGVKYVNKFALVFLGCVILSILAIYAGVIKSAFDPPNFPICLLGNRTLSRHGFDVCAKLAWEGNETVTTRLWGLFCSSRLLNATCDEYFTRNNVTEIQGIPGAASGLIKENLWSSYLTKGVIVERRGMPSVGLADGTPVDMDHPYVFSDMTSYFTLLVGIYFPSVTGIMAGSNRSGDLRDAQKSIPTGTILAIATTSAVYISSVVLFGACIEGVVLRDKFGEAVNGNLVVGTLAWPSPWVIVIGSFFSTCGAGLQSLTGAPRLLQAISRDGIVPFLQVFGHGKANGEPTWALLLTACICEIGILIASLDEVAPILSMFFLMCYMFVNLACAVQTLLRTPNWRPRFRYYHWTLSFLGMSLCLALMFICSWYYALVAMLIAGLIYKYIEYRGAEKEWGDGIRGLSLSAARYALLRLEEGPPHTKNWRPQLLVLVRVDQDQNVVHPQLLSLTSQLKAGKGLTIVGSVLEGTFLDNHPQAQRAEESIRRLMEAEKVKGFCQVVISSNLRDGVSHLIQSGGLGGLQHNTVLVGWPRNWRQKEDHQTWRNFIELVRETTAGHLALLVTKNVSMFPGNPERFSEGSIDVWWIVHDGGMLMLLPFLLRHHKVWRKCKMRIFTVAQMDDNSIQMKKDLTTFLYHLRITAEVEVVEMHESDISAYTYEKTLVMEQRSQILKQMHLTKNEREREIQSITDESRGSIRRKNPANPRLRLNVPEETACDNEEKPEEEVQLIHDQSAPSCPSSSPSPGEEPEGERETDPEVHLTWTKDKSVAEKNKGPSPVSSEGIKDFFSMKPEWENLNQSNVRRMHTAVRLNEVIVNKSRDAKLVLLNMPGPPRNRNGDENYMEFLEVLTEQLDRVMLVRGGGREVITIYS

T2: K+/Cl- co-transporter KCC2 (mouse (endogenous in mouse forebrain)), Q91V14
T2 chain: T1 sequence

B1: SNAP91 (protein, UniProt Q61548 1-901)
chain: MSGQTLTDRIAAAQYSVTGSAVARAVCKATTHEVMGPKKKHLDYLIQATNETNVNIPQMADTLFERATNSSWVVVFKALVTTHHLMVHGNERFIQYLASRNTLFNLSNFLDKSGSHGYDMSTFIRRYSRYLNEKAFSYRQMAFDFARVKKGADGVMRTMVPEKLLKSMPILQGQIDALLEFDVHPNELTNGVINAAFMLLFKDLIKLFACYNDGVINLLEKFFEMKKGQCKDALEIYKRFLTRMTRVSEFLKVAEQVGIDKGDIPDLTQAPSSLMETLEQHLNTLEGKKPGNNEGSGAPSPLSKSSPATTVTSPNSTPAKTIDTSPPVDIFATASAAAPVSSAKPSSDLLDLQPDFSGAAAGAAAPVVPPSGGATAWGDLLGEDSLAALSSVPCEAPISDPFAPEPSPPTTTTEPASASASTTTAVTAVTTEVDLFGDAFAASPGEAPAASEGATAPATPAPVAAALDACSGNDPFAPSEGSAEAAPELDLFAMKPPETSAPVVTPTASTAPPVPATAPSPAPTAVAATAATTTAAAAATTTATTSAAAATTAAAPPALDIFGDLFDSAPEVAAAPKPDAAPSIDLFGTDAFSSPPRGASPVPESSLTADLLSVDAFAAPSPASTASPAKAESSGVIDLFGDAFGSGASETQPAPQAVSSSSASADLLAGFGGSFMAPSTTPVTPAQNNLLQPSFEAAFGTTPSTSSSSSFDPSVFDGLGDLLMPTMAPSGQPAPVSMVPPSPAMAASKGLGSDLDSSLASLVGNLGISGTTSKKGDLQWNAGEKKLTGGANWQPKVTPATWSAGVPPQGTVPPTSSVPPGAGAPSVGQPGAGFGMPPSGTGMTMMSQQPVMFAQPMMRPPFGAAAVPGTQLSPSPTPATQSPKKPPAKDPLADLNIKDFL
B2: NETO2, Q8BNJ6 23-525 (protein)
chain: IAVAQKTQDGQNIGIKHIPATQCGIWVRTSNGGHFASPNYPDSYPPNKECIYILEAAPRQRIELTFDERYYIEPSFECRFDHLEIRDGPFGFSPLIDRYCGMKSPALIRSTGRFMWIKFSSDEELEGLGFRAKYSFIPDPDFTYLGGILNPIPDCQFELSGADGIVRSSQVEQEEKTKPGQAVDCIWTIKATPKAKIYLRFLDYQMEHSNECKRNFVAVYDGSSAIENLKAKFCSTVANDVMLKTGVGVIRMWADEGSRLSRFRMLFTSFVEPPCTSSTFFCHSNMCINNSLVCNGVQNCAYPWDENHCKEKKKAGLFEQITKTHGTIIGITSGIVLVLLIISILVQVKQPRKKVMACKTAFNKTGFQEVFDPPHYELFSLREKEISADLADLSEELDNYQKLRRSSTASRCIHDHHCGSQASSVKQSRTNLSSMELPFRNDFAQPQPMKTFNSTFKKSSYTFKQAHECPEQALEDRVMEEIPCEIYVRGRDDSAQASISIDF
B3: GRIK2, P39087 32-908 (receptor)
chain: TTHVLRFGGIFEYVESGPMGAEELAFRFAVNTINRNRTLLPNTTLTYDTQKINLYDSFEASKKACDQLSLGVAAIFGPSHSSSANAVQSICNALGVPHIQTRWKHQVSDNKDSFYVSLYPDFSSLSRAILDLVQFFKWKTVTVVYDDSTGLIRLQELIKAPSRYNLRLKIRQLPADTKDAKPLLKEMKRGKEFHVIFDCSHEMAAGILKQALAMGMMTEYYHYIFTTLDLFALDVEPYRYSGVNMTGFRILNTENTQVSSIIEKWSMERLQAPPKPDSGLLDGFMTTDAALMYDAVHVVSVAVQQFPQMTVSSLQCNRHKPWRFGTRFMSLIKEAHWEGLTGRITFNKTNGLRTDFDLDVISLKEEGLEKIGTWDPSSGLNMTESQKGKPANITDSLSNRSLIVTTILEEPYVLFKKSDKPLYGNDRFEGYCIDLLRELSTILGFTYEIRLVEDGKYGAQDDVNGQWNGMVRELIDHKADLAVAPLAITYVREKVIDFSKPFMTLGISILYRKPNGTNPGVFSFLNPLSPDIWMYILLAYLGVSCVLFVIARFSPYEWYNPHPCNPDSDVVENNFTLLNSFWFGVGALMQQGSELMPKALSTRIVGGIWWFFTLIIISSYTANLAAFLTVERMESPIDSADDLAKQTKIEYGAVEDGATMTFFKKSKISTYDKMWAFMSSRRQSVLVKSNEEGIQRVLTSDYAFLMESTTIEFVTQRNCNLTQIGGLIDSKGYGVGTPMGSPYRDKITIAILQLQEEGKLHMMKEKWWRGNGCPEEESKEASALGVQNIGGIFIVLAAGLVLSVFVAVGEFLYKSKKNAQLEKRSFCSAMVEELRMSLKCQRRLKHKPQAPVIVKTEEVINMHTFNDRRLPGKETMA
B4: ARHGEF7 (protein, UniProt Q9ES28 1-862)
chain: MNSAEQTVTWLITLGVLESPKKTISDPEVFLQASLKDGVVLCRLLERLLPGTIEKVYPEPRNESECLSNIREFLRACGASLRLETFDANDLYQGQNFNKVLSSLVTLNKVTADIGLGSDSVCARPSSHRIKSFDSLGSQSSHSRTSKLLQSQYRSLDMTDNTNSQLVVRAKFNFQQTNEDELSFSKGDVIHVTRVEEGGWWEGTHNGRTGWFPSNYVREIKPSEKPVSPKSGTLKSPPKGFDTTAINKSYYNVVLQNILETEHEYSKELQSVLSTYLRPLQTSDKLSSANTSYLMGNLEEISSFQQVLVQSLEECTKSPEAQQRVGGCFLSLMPQMRTLYLAYCANHPSAVSVLTEHSEDLGEFMETKGASSPGILVLTTGLSKPFMRLDKYPTLLKELERHMEDYHPDRQDIQKSMTAFKNLSAQCQEVRKRKELELQILTEPIRSWEGDDIKTLGSVTYMSQVTIQCAGSEEKNERYLLLFPNLLLMLSASPRMSGFIYQGKLPTTGMTITKLEDSENHRNAFEISGSMIERILVSCTSQQDLHEWVEHLQKQTKVTSVSNPTIKPHSVPSHTLPSHPLTPSSKHADSKPVALTPAYHTLPHPSHHGTPHTTISWGPLEPPKTPKPWSLSCLRPAPPLRPSAALCYKEDLSKSPKTMKKLLPKRKPERKPSDEEFAVRKSTAALEEDAQILKVIEAYCTSAKTRQTLNSTWQGTDLMHNHVLADDDQSSLDSLGRRSSLSRLEPSDLSEDSEYDSIWTAHSYRMGSASRSRKESAPQVLLPEEEKIIVEETKSNGQTVIEEKSLVDTVYALKDEVQELRQDNKKMKKSLEEEQRARKDLEKLVRKVLKNMNDPAWDETNL
B5: RCC1 (protein, UniProt Q8VE37 1-421)
chain: MPPKRIAKRRSPPEDAIPKSKKVKVSHRSHNTEPGLVLTLGQGDVGQLGLGESVLERKKPALVPLLQDVVQAEAGGMHTVCLSQSGQVYSFGCNDEGALGRDTSVEGSEMVPGKVELQEKVVQVSAGDSHTAALTEDGRVFLWGSFRDNNGVIGLLEPMKKSMVPVQVQLDAPVVKVASGNDHLVMLTNDGDLYTLGCGEQGQLGRVPELFANRGGRQGLGRLLVPRCVLLKSRGTRGRVRFQDAFCGAYFTFAISREGHVYGFGLSNYHQLGTPGTGSCFIPQNLTSFKNSTKSWVGFSGGQHHTVCMDSEGKAYSLGRAEYGRLGLGEGAEEKSIPTLISRLPVVSSVACGASVGYAVSKDGRVFAWGMGTNYQLGTGQDEDAWSPVEMTGKQLENRVVLTVSSGGQHTVLLVKDQAQS

Experiments:
[1] = target: T1, K+/Cl- co-transporter KCC2 (mouse (endogenous in mouse forebrain)); experiment: affinity purification with mass spectrometry
[2] = target: T2, K+/Cl- co-transporter KCC2 (mouse …); experiment: affinity purification with mass spectrometry; details: remark: other sources report otherwise

| Binder | binding [1] | binding [2] |
| --- | --- | --- |
| B1 | binds |  |
| B2 |  | no binding |
| B3 |  | no binding |
| B4 | no binding |  |
| B5 | no binding |  |

These are yes or no findings as the source states them, for the method shown. In cells and extracts the contact can be indirect. Here binding means that the protein was enriched with, or labelled near, the bait; the list need not be complete. No binding means not detected with the bait.
